± gives the standard error. Many entries were measured with a wide error.
B1: glmS ribozyme (parent)
chain: AUAAAAGCGCCAGAACUACAGAAAUGUAGUUGACGAGGAGGAGGUUUAUCGAAUUUUCGGCGGAUGCCUCCAAA

Variants of: B1
Assay: kcat; higher = faster cleavage; RNA array
Conditions: with glucosamine-6-phosphate
Summary of the method: (§1)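 kobs was derived by fitting per-tile medians to one- or two-exponential decays after normalising signals to baseline and to non-cleaving reference variants. Those signals came from barcoded ribozyme variants transcribed in situ by E. coli RNA polymerase on sequenced MiSeq chips, followed through a hybridised Cy3 probe at 37 °C and imaged over ~14 h. Glucosamine-6-phosphate (40 μM to 10 mM) in HEPES/KCl/Mg(OAc)2 buffer was flowed in. Weighted Michaelis–Menten fits across concentrations then gave kcat and KM.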

Variant	kcat [s⁻¹]
AUAAAAGCGCCAGAACUACAGAAAUGUAGUUGACGAGCAGGAGGUUUAUCGAAUUUUCGGCGGAUCCCUUCAAA [G38C G66C C70U]	1.23e-05 ± 9.7e-07
AUAAAAGCGCCAGAACUACAGAAAUGUAGUUGACGAGUAGGAGGUUUAUCGAAUUUUCGGCGGCUGCCUCCAAA [G38U A64C]	1.58e-05 ± 1.1e-05
AUAAAAGCGCCAGAACUACAGAAAUGUAGUUGACGAGUAGGAGGUUUAUUGAAUUUUCGGCGGAUGCCUCCAAA [G38U C50U]	1.93e-05 ± 1e-05
AUAAAAGCGCCAGAACUACAGAAAUGUAGUUGACGAGUAGGAGGUUUAUCGAAUUUUCGGUGGAAGCCGCCAAA [G38U C61U U65A U69G]	2.93e-05 ± 1.7e-05
AUAAAAGCGCCAGAACUACAGAAAUGUAGUUGACGAGUAGGAGGUUUAUCGAAUUUUCGGCGGAUGCAUCCAAA [G38U C68A]	3.5e-05 ± 2.9e-05
AUAAAAGCGCCAGAACUACAGAAAUGUAGUUGACGAGUAGGAGGUUUAUCGAAUUUUCGGCGGAUGCGUCCAAA [G38U C68G]	0.000246 ± 5.7e-05
AUAAAAGCGCCAGAACUACAGAAAUGUAGUUGACGAGUAUGAGGUUUAUCGAAUUUUCGGCGGAUGCCUCCAAA [G38U G40U]	< 1e-05
AUAAAAGCGCCAGAACUACAGAAAUGUAGUUGACGAGUAGGAGGUUUAUCGAAUUUUCGGCGGAUGCCACCAAA [G38U U69A]	2.33e-05 ± 1.2e-05
AUAAAAGCGCCAGAACUACAGAAAUGUAGUUGACGAGGCGGAGGUUUAUCGAAUUUUCGGCGGAUGCCUACAAA [A39C C70A]	< 1e-05
AUAAAAGCGCCAGAACUACAGAAAUGUAGUUGACGAGGCGGAGGUUUAUCGAAUUUUCGGCGGAUGCCACCAAA [A39C U69A]	1.07e-05 ± 6.9e-06
AUAAAAGCGCCAGAACUACAGAAAUGUAGUUGACGAGGGGGAGGUUCAUCGAAUUUUCGGCGGAUGCCUCCAAA [A39G U47C]	0.0217 ± 0.011
AUAAAAGCGCCAGAACUACAGAAAUGUAGUUGACGAGGGGGAGGUUUAUCGAAUUUACGGCGGAUGCCUCCAAA [A39G U57A]	0.000584 ± 0.00039
AUAAAAGCGCCAGAACUACAGAAAUGUAGUUGACGAGGUGGCGGUUUAUCGAAUUUUCGGCGGAUGCCUCCAAA [A39U A42C]	0.000556 ± 3.1e-05
AUAAAAGCGCCAGAACUACAGAAAUGUAGUUGACGAGGUGGAGGUUUAUCGAUUUUUCGGCGGAUGCCUCCAAA [A39U A53U]	0.0113 ± 0.0033
AUAAAAGCGCCAGAACUACAGAAAUGUAGUUGACGAGGUCGAGGUCUAUCGAAUUUUCGGCGGAUGCCUCCAAA [A39U G40C U46C]	0.000472 ± 0.00031
AUAAAAGCGCCAGAACUACAGAAAUGUAGUUGACGAGGUGGAUGUUUAUCGAAUUUUCGGCGGAUGCCUCCAAA [A39U G43U]	0.000561 ± 0.00011
AUAAAAGCGCCAGAACUACAGAAAUGUAGUUGACGAGGUGGAGGUUUAUCGAAUUUUCGGCGGAUACCUCCAAA [A39U G66A]	0.0156 ± 0.0094
AUAAAAGCGCCAGAACUACAGAAAUGUAGUUGACGAGGUGGAGGUUUAUCGAAUCUUCGGCGGAUGCCUCCAAA [A39U U55C]	0.0267 ± 0.014
AUAAAAGCGCCAGAACUACAGAAAUGUAGUUGACGAGGAAGAGGUUUAUCGAAUUUUCGGCGGAUGCCUACAAA [G40A C70A]	0.000241 ± 1.6e-05

Variants of: B1
Assay: self-cleavage kobs at 640 uM GlcN6P; higher = faster cleavage; RNA array
Conditions: with glucosamine-6-phosphate
Summary of the method: as §1

Variant	self-cleavage kobs at 640 uM GlcN6P [s⁻¹]
AUAAAAGCGCCAGAACUACAGAAAUGUAGUUGACGAGUAGGAGGUUUAUCGAAUUUUCGGUGGAAGCCGCCAAA [G38U C61U U65A U69G]	5.06e-05 ± 3.4e-05
AUAAAAGCGCCAGAACUACAGAAAUGUAGUUGACGAGGGGGAGGUUUAUCGAAUUUACGGCGGAUGCCUCCAAA [A39G U57A]	3.34e-05 ± 1.8e-05

Variants of: B1
Assay: self-cleavage kobs at 10000 uM GlcN6P; higher = faster cleavage; RNA array
Conditions: with glucosamine-6-phosphate
Summary of the method: as §1

Variant	self-cleavage kobs at 10000 uM GlcN6P [s⁻¹]
AUAAAAGCGCCAGAACUACAGAAAUGUAGUUGACGAGUAGGAGGUUUAUCGAAUUUUCGGCGGAUGCAUCCAAA [G38U C68A]	1.64e-05 ± 1.3e-05
AUAAAAGCGCCAGAACUACAGAAAUGUAGUUGACGAGUAGGAGGUUUAUCGAAUUUUCGGCGGAUGCCACCAAA [G38U U69A]	1.95e-05 ± 1.6e-05

Variants of: B1
Assay: KM; higher = weaker cofactor use; RNA array
Conditions: with glucosamine-6-phosphate
Summary of the method: as §1

Variant	KM [µM]
AUAAAAGCGCCAGAACUACAGAAAUGUAGUUGACGAGUAGGAGGUUUAUCGAAUUUUCGGCGGAUGCGUCCAAA [G38U C68G]	108 ± 52
AUAAAAGCGCCAGAACUACAGAAAUGUAGUUGACGAGGGGGAGGUUCAUCGAAUUUUCGGCGGAUGCCUCCAAA [A39G U47C]	2930 ± 1900
AUAAAAGCGCCAGAACUACAGAAAUGUAGUUGACGAGGUGGCGGUUUAUCGAAUUUUCGGCGGAUGCCUCCAAA [A39U A42C]	3030 ± 290
AUAAAAGCGCCAGAACUACAGAAAUGUAGUUGACGAGGUGGAGGUUUAUCGAUUUUUCGGCGGAUGCCUCCAAA [A39U A53U]	1260 ± 530
AUAAAAGCGCCAGAACUACAGAAAUGUAGUUGACGAGGUGGAUGUUUAUCGAAUUUUCGGCGGAUGCCUCCAAA [A39U G43U]	1770 ± 600
AUAAAAGCGCCAGAACUACAGAAAUGUAGUUGACGAGGUGGAGGUUUAUCGAAUUUUCGGCGGAUACCUCCAAA [A39U G66A]	3390 ± 2700
AUAAAAGCGCCAGAACUACAGAAAUGUAGUUGACGAGGUGGAGGUUUAUCGAAUCUUCGGCGGAUGCCUCCAAA [A39U U55C]	3180 ± 1900
AUAAAAGCGCCAGAACUACAGAAAUGUAGUUGACGAGGAAGAGGUUUAUCGAAUUUUCGGCGGAUGCCUACAAA [G40A C70A]	350 ± 60

Two entries picked at random from those above:
Variant	KM [µM]
AUAAAAGCGCCAGAACUACAGAAAUGUAGUUGACGAGGUGGAUGUUUAUCGAAUUUUCGGCGGAUGCCUCCAAA [A39U G43U]	1770 ± 600
AUAAAAGCGCCAGAACUACAGAAAUGUAGUUGACGAGGUGGCGGUUUAUCGAAUUUUCGGCGGAUGCCUCCAAA [A39U A42C]	3030 ± 290

Variants of: B1
Assay: self-cleavage kobs at 2500 uM GlcN6P; higher = faster cleavage; RNA array
Conditions: with glucosamine-6-phosphate
Summary of the method: as §1

Variant	self-cleavage kobs at 2500 uM GlcN6P [s⁻¹]
AUAAAAGCGCCAGAACUACAGAAAUGUAGUUGACGAGUAGGAGGUUUAUCGAAUUUUCGGCGGAUGCGUCCAAA [G38U C68G]	0.000391 ± 0.00022
AUAAAAGCGCCAGAACUACAGAAAUGUAGUUGACGAGUAGGAGGUUUAUCGAAUUUUCGGCGGAUGCCACCAAA [G38U U69A]	2.08e-05 ± 1.9e-05

Variants of: B1
Assay: self-cleavage kobs at 40 uM GlcN6P; higher = faster cleavage; RNA array
Conditions: with glucosamine-6-phosphate
Summary of the method: as §1

Variant	self-cleavage kobs at 40 uM GlcN6P [s⁻¹]
AUAAAAGCGCCAGAACUACAGAAAUGUAGUUGACGAGUAGGAGGUUUAUCGAAUUUUCGGCGGAUGCCACCAAA [G38U U69A]	1.9e-05 ± 1.8e-05

Variants of: B1
Assay: self-cleavage kobs at 160 uM GlcN6P; higher = faster cleavage; RNA array
Conditions: with glucosamine-6-phosphate
Summary of the method: as §1

Variant	self-cleavage kobs at 160 uM GlcN6P [s⁻¹]
AUAAAAGCGCCAGAACUACAGAAAUGUAGUUGACGAGUAGGAGGUUUAUCGAAUUUUCGGCGGAUGCCACCAAA [G38U U69A]	2.46e-05 ± 2.2e-05
AUAAAAGCGCCAGAACUACAGAAAUGUAGUUGACGAGGGGGAGGUUCAUCGAAUUUUCGGCGGAUGCCUCCAAA [A39G U47C]	0.000634 ± 0.00033

Reference: the supplement of paper PMC7125110
